Results from paper PMC9134899.
Results are given in words; binding and its absence hold for the method and conditions named. Binding seen in cells or lysates may run through a third protein. Some binding calls cover weakened binding; strength is not graded here. Values belong to the molecule of their own block, whether it stands above or below them.

By UniProt entry, the sequences of proteins in these tests, tags left out. Residues count along the entry.
UniProt Q12778: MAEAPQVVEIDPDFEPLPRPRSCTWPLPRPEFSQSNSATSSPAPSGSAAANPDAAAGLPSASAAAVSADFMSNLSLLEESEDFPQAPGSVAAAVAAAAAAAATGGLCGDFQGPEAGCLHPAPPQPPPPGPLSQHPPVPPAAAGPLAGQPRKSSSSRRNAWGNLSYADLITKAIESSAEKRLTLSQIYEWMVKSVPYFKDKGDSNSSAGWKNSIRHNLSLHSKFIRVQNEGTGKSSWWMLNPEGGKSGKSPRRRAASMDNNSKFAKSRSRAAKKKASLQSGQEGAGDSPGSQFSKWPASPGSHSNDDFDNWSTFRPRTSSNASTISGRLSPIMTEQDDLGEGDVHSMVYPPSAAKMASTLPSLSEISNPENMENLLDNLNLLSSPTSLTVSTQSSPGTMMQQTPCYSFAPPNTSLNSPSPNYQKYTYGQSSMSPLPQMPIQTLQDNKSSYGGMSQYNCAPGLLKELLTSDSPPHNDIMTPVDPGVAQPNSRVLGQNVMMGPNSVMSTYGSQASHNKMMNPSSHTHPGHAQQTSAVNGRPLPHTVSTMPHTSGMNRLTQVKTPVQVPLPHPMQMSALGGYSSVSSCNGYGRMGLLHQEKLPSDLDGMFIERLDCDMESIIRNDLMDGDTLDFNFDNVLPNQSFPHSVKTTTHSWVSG
UniProt P05231, residues 30-212: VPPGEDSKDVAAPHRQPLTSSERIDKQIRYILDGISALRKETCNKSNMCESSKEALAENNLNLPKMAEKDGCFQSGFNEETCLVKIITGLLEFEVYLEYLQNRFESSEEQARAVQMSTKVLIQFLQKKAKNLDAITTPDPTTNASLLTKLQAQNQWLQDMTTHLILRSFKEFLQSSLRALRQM

Experiments:
[1] = target: FOXO1 (human (endogenous in SUM159PT)) (UniProt Q12778); assay: co-IP; SUM159PT cells; nuclear extracts lysed in RIPA buffer, 1 mg protein with antibody 2 h at 4 °C, protein A-agarose beads overnight at 4 °C, Western blot; without and with CAP (PAM, 5 min CAP, 24 h), siRNA against SCAF11 or RPS6KA3; which protein was precipitated is not told
[2] = target: T1, SCAF11 (human (endogenous in SUM159PT)) (UniProt Q99590); assay: as above
T1 sequence: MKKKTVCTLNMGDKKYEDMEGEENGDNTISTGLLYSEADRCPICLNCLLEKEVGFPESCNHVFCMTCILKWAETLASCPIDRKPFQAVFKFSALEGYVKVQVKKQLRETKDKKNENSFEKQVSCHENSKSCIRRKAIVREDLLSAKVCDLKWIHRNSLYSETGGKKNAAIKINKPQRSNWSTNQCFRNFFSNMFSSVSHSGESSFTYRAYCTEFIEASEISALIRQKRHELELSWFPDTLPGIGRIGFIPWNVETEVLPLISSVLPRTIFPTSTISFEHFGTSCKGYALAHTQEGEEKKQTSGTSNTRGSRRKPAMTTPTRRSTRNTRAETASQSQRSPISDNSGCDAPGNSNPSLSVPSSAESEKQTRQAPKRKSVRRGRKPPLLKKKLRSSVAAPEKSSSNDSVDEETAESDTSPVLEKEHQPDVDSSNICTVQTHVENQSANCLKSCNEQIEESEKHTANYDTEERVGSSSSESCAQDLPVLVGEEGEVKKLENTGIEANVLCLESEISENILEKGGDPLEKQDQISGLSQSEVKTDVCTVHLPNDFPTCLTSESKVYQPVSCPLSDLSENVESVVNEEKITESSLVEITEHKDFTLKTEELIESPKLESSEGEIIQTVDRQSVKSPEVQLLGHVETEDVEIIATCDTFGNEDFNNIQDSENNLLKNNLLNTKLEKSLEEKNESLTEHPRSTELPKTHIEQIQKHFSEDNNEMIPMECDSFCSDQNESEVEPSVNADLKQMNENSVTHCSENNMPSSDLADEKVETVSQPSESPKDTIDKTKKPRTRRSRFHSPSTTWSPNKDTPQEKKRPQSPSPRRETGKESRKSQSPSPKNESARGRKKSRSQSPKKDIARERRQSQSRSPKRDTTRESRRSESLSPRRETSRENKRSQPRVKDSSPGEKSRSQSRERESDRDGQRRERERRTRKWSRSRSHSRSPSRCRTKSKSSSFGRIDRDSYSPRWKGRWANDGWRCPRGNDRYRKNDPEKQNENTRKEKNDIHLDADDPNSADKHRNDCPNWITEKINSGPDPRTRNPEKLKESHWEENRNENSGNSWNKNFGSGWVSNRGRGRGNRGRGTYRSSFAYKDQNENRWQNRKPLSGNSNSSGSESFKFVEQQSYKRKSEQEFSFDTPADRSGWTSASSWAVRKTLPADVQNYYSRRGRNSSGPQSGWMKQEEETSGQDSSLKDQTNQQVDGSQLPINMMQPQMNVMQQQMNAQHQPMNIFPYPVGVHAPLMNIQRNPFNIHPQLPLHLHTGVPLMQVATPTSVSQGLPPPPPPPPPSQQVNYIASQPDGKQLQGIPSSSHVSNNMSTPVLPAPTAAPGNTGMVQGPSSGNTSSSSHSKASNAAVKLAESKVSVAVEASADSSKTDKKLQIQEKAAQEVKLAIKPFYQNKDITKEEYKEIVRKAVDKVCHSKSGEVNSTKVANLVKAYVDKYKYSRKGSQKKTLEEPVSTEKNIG

- binding [1]: binds
Molecule: IL6 (from UniProt P05231 30-212)

- binding [2]: binds
B1: AQP3 (protein, UniProt Q92482 1-292)
chain: MGRQKELVSRCGEMLHIRYRLLRQALAECLGTLILVMFGCGSVAQVVLSRGTHGGFLTINLAFGFAVTLGILIAGQVSGAHLNPAVTFAMCFLAREPWIKLPIYTLAQTLGAFLGAGIVFGLYYDAIWHFADNQLFVSGPNGTAGIFATYPSGHLDMINGFFDQFIGTASLIVCVLAIVDPYNNPVPRGLEAFTVGLVVLVIGTSMGFNSGYAVNPARDFGPRLFTALAGWGSAVFTTGQHWWWVPIVSPLLGSIAGVFVYQLMIGCHLEQPPPSNEEENVKLAHVKHKEQI
